According to patent US10280241B2, “Tackifier compounds and methods of using the same” (Iowa State University Research Foundation, Inc., priority 2012, dated 2019):

Assay: Probe tack, modified ASTM 02979 standard (Instron load frame)
Conditions: for Maximum tack: maximum over selected temperatures from −50° C. to 80° C., 0.1 mm film on glass slide, 5 mm type 304 stainless steel probe; for Temperature at which maximum tack was observed: selected temperatures from −50° C. to 80° C.
Protocol: Tack was measured by modifications to the […] standard. On an Instron® load frame, the tackifier to be tested was applied to a glass slide at a thickness of 0.1 mm. The slide was then clamped to a flat surface and, perpendicularly, a type 304 stainless steel probe measuring 5 mm in diameter, with a 90° polished tip was place above the slide. The probe was then lowered at a rate of 0.5 mm sec^−1 and contacted the surface at an average force of 1.5 N. The probe was then held on the surface for 1.0 sec and then raised at a rate of 0.5 mm sec^−1. Tack was measured as the maximum force required to remove the probe from the surface of the tackifier. Tg was measured by DSC.

Row | Structure (SMILES) | Maximum tack | Temperature at which maximum tack was observed
1 | O=C(O)CCC(=O)OC1COC2C(OC(=O)CCC(=O)O)COC12 (stereo not shown) [3a] | 168 kPa | 25 °C
2 | O=C(O)CCCC(=O)O[C@H]1CO[C@H]2[C@@H]1OC[C@H]2OC(=O)CCCC(=O)O [3b] | 112 kPa | 25 °C
3 | O=C(O)C=CC(=O)O[C@H]1CO[C@H]2[C@@H]1OC[C@H]2OC(=O)C=CC(=O)O [3c] | 130 kPa | 60 °C
4 | O=C(O)CCC(=O)O[C@@H]1CO[C@H]2[C@@H]1OC[C@H]2OC(=O)CCC(=O)O [5a] | 121 kPa | 25 °C
5 | O=C(O)CCCC(=O)O[C@@H]1CO[C@H]2[C@@H]1OC[C@H]2OC(=O)CCCC(=O)O [5b] | 107 kPa | 60 °C
